Assays:
[1] = tested on: A549 (lung epithelial cells); test: Cytotoxicity against mammalian cell line; format: cell-based
Protocol: The cytotoxicity of the TPP COEs was also tested against a mammalian cell line (A549).

[2] = tested on: M. abscesses (ATCC 19977); test: MIC against mycobacterium in Middlebrook 7H9 broth; format: cell-based, M. abscessus
Protocol: We also examined non-tuberculous mycobacteria (NTM). These are opportunistic pathogens that are rising in clinical significance due to their increasing prevalence and treatment difficulty. The membrane of Mycobacterium is inherently a greater antibiotic permeability barrier due to its high lipid content relative to other pathogens and long-tailed mycolic acids that contributed to its high lipophilic character. The antimicrobial activity of the TPP analogues were also evaluated against Mycobacterium in Middlebrook 7H9 broth.

[3] = tested on: P. aeruginosa (ATCC47085); test: MIC, broth microdilution in CA-MHB; format: cell-based
Protocol: (§1) Antimicrobial activity was screened against a range of pathogens made up of clinically relevant ESKAPE pathogens by determination of the minimum inhibitory concentration (MIC) in cation-adjusted Mueller-Hinton broth (CA-MHB).
(§2) Minimum inhibitory concentrations of COEs were determined through a broth microdilution method in accordance with the Clinical and Laboratory Standards Institute (CLSI) guidelines M07-A10. A single bacterial colony was isolated from an overnight culture and grown to mid-log phase (OD600~0.8). Compounds were prepared as a stock solution in DMSO and diluted in a sterile flat-bottom 96-well plate in CA-MHB. Subsequent concentrations were prepared by two-fold dilution of the initial solution. An equivalent volume of bacteria was added to the compound to a final concentration of 5×10^5 cfu/mL. Plates were incubated at 37° C. for 16-18 hours, and read at OD600 using a microplate reader (TECAN Spark®). […] MIC values were determined for each compound in triplicate.

[4] = tested on: E. faecalis OG1RF (ATCC 47077); test: MIC, broth microdilution in CA-MHB; format: cell-based
Protocol: as §1, §2

[5] = tested on: E. coli. K12 (ATCC 10798); test: MIC, broth microdilution in CA-MHB; format: cell-based
Protocol: as §1, §2

A. baumanii (ATCC 17978) = test: MIC, broth microdilution in CA-MHB; format: cell-based
Protocol: as §1, §2

E. facium (ATCC 19434) = test: MIC, broth microdilution in CA-MHB; format: cell-based
Protocol: as §1, §2

S. aureus (ATCC 29213) = test: MIC, broth microdilution in CA-MHB; format: cell-based
Protocol: as §1, §2

[6] = tested on: K. pneumoniae (carbapenem-resistant Enterobacterales) (ATCC BAA1705); test: MIC, broth microdilution in CA-MHB; format: cell-based
Protocol: as §1, §2

[7] = tested on: Methicillin-resistant S. aureus (ATCC BAA1717); test: MIC, broth microdilution in CA-MHB; format: cell-based
Protocol: as §1, §2

`C(=C\c1ccc(OCCCCCCCC[P+](c2ccccc2)(c2ccccc2)c2ccccc2)cc1)/c1ccc(OCCCCCCCC[P+](c2ccccc2)(c2ccccc2)c2ccccc2)cc1.[I-].[I-]` [Compound D8P] was tested, and the IC50 [1] was 7 µg/mL, the “MIC M. abscesses” value [2] was 128 µg/mL and the “MIC PA” value [3] was greater than 4 µg/mL. For the same compound, the “MIC FAE” value [4] was 2 µg/mL, the “MIC EC” value [5] was greater than 4 µg/mL and the “MIC AB” value (A. baumanii (ATCC 17978)) was greater than 4 µg/mL. The “MIC FAC” value (E. facium (ATCC 19434)) was 2 µg/mL, the “MIC SA” value (S. aureus (ATCC 29213)) was greater than 4 µg/mL and the “MIC KP” value [6] was greater than 4 µg/mL. The “MIC MRSA” value [7] was greater than 4 µg/mL.
